System: T1, Ta_PYL2DS_FL (with TaABI1)
T1 construct: full-length receptor (214 residues), codon-optimised, N-terminal His tag, E. coli; TaABI1 N-terminal His tag, E. coli; receptor:PP2C 10:1; with Protein phosphatase 2C ABI1
Assay: receptor-mediated PP2C inhibition, 4-methylumbelliferyl phosphate fluorescence
Type: biochemical, Triticum aestivum
Conditions: 0.1 uM ligand; TaABI1 (same result with AtABI1), receptor:PP2C 10:1, Mn2+, pH 7.9, 30 °C

Structure (SMILES) | % decrease in PP2C activity
CO[C@]1(/C=C/C(C)=C\C(=O)O)C(C)=CC(=O)CC1(C)C [PBI352] | ~ 30%
CO[C@@]1(/C=C/C(C)=C\C(=O)O)C(C)=CC(=O)CC1(C)C [PBI354] | ~ 0%

Source: article PMC5068739 (PLoS ONE, 2016)
